Results are given in words; binding and its absence hold for the method and conditions named. Some results given as binding are weak or reduced against the parent protein; the word gives no strength.
T1: TL1A (UniProt O95150)
T1 sequence (looked up): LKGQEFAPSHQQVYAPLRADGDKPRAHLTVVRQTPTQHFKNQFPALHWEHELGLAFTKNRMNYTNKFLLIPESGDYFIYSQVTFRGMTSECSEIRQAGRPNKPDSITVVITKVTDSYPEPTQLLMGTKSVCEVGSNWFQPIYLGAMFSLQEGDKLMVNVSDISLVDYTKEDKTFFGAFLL


Molecular target: T1, TL1A
Test: peptide selection, Example 48

Row | Binder | binding
1 | DYAVCWDVYADRLIYCEVPM [TLA398] | binds
2 | DYEVCWDFDIDRLVYCNPPM [TLA399] | binds
3 | DYEVCWDVHLDRLVYCDGPL [TLA402] | binds
4 | DYSVCWDFYFDRLVYCNALF [TLA403] | binds
5 | DYEVCWDVHVGRLIYCNALI [TLA404] | binds
6 | SYDVCWDDVVDRLVYCEATL [TLA405] | binds
7 | DYEVCWDVEVDRLVYCVGHK [TLA406] | binds
8 | PYEVCWDFHLDRLVFCDADK [TLA407] | binds
9 | DYEVCWDFLLDRLVYCDAPI [TLA408] | binds
10 | DWEVCWDVHLDRLVFCETLI [TLA409] | binds
11 | DYEVCWDFDFDRLVFCEAVM [TLA410] | binds
12 | DYDVCWDVNADRLVYCNAIL [TLA411] | binds
13 | NHDVCWEFHLDRLVYCDGPS [TLA412] | binds
14 | DYEVCWDVQLEHLVYCEAPI [TLA413] | binds
15 | DDQVCWDVKIDRLVYCEALM [TLA415] | binds
16 | HSDVCWDFDIDRLVFCDTLI [TLA416] | binds
17 | DYEVCWDIHLDRLVYCNTPM [TLA418] | binds
18 | DYDVCWDEDVDRLVYCEPPI [TLA419] | binds
19 | DYEVCWDFDLDRLVYCDSDV [TLA420] | binds
20 | DYEVCWDDHLDRLVYCDAPG [TLA421] | binds
21 | DYDVCWDFDLDRLVYCSGPL [TLA422] | binds
22 | DYEVCWDDHVDRLVYCDRTL [TLA423] | binds
23 | DYEVCWDPHVDRLVYCDAPA [TLA424] | binds
24 | HYEVCWDAHFDRLVYCEAPI [TLA425] | binds
25 | DLEVCWDFDVDRLVYCEAPI [TLA426] | binds

Row | Binder | binding
26 | GFEVCWDVDLDRLVFCAASE [TLA427] | binds
27 | SYAVCWDFDLERLVYCEIPL [TLA428] | binds
28 | DHEVCWDFELDRLVYCYKAK [TLA429] | binds
29 | KYEVCWDEHIDRLVYCDVPM [TLA430] | binds
30 | YSDVCWDFDLDRLVYCEAHL [TLA431] | binds
31 | DYEVCWDVNLDRLVYCAGPM [TLA432] | binds
32 | HYDVCWDDQVDRLVYCHAPL [TLA433] | binds
33 | EYDVCWDFDIDRLVYCVPLS [TLA434] | binds
34 | YYEVCWDLNLDRLVYCDVNK [TLA435] | binds
35 | NYQVCWDFDLDRLVYCGAHK [TLA436] | binds
36 | DYEVCWDVYFGRLVYCDVLM [TLA437] | binds
37 | EYVVCWDTEVDHLVYCDAAM [TLA438] | binds
38 | YSDVCWDFYYDRLVYCDASI [TLA439] | binds
39 | DYEVCWDVDVDRLVYCDGPK [TLA440] | binds
40 | DYAVCWDDHVEHLVYCDASW [TLA441] | binds
41 | DYDVCWDFDFERLVFCNSSM [TLA442] | binds
42 | DYAVCWDDHFDRLVYCDWTT [TLA443] | binds
43 | DYDVCWDEHLDRLVYCNGLG [TLA444] | binds
44 | EYEVCWDVNVDRLVWCYATM [TLA445] | binds
45 | DYEVCWDVHAERLYYCDAPI [TLA446] | binds
46 | DHEVCWDEHVDRLVYCYKAI [TLA447] | binds
47 | DYDVCWDDYLDRLVYCEARI [TLA448] | binds
48 | HYDVCWDYHLDRLVYCNRHM [TLA450] | binds
49 | DYEVCWDIHLDHLVYCDAPW [TLA451] | binds
